For one substance, binding results are on record in PMC12408324.

Amino acid sequences for entries named in this document (tags omitted).
UniProt P19474: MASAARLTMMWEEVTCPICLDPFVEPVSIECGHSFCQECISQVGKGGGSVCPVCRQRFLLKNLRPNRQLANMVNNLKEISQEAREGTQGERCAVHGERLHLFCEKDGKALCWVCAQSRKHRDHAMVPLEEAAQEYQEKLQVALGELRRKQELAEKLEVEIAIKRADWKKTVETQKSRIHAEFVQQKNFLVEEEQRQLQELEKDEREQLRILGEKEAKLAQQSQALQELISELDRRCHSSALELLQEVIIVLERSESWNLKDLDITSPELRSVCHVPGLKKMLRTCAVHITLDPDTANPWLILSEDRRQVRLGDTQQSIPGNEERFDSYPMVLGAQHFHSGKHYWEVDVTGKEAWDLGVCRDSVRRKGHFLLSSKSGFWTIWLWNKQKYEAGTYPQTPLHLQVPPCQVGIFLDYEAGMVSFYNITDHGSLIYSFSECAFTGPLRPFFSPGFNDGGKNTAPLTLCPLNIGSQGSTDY

Results are given in words; binding and its absence hold for the method and conditions named. In cells and extracts the contact can be indirect. Some results given as binding are weak or reduced against the parent protein; the word gives no strength. Tags and fused reporters may be left off the sequences shown.

The test deals with T1, Flag-tagged ID1 (human) (UniProt P41134).
T1 sequence: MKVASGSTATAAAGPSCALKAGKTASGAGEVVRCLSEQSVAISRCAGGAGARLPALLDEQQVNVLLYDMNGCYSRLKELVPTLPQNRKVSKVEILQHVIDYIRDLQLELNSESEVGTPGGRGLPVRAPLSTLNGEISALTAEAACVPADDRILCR
Description: co-IP; PANC-1 and AsPC-1 cells with Flag-tagged ID1; normoxia or hypoxia (3% O2, 12 h); NP-40 lysis buffer (50 mM Tris-HCl pH 7.5, 150 mM NaCl, 1% NP-40); anti-FLAG M2 magnetic beads overnight at 4°C; western blot. On the technique in general: Immunoblotting shows a protein as a band on a membrane.

For “TRIM21 (Tripartite motif-containing protein 21) (from UniProt P19474 1-475)”, the binding entry is “binds”.
